# Source: PubChem BioAssay AID504467 (National Center for Advancing Translational Sciences (NCATS), 2011)
# About 7,700 (2.3%) of roughly 330,000 compounds were called active. The shares of active, inactive and inconclusive entries below differ from those in the screen. Calls follow the shape of the dose curve; as a rule, active = well fitted inhibition curve with a large enough effect; inconclusive = small, poorly fitted or top-dose-only effect, or effect the other way; inactive = flat fitted curve, though single readings scatter. A potency beside an inconclusive call is a rough fit, not a confirmed value.
# Test: qHTS screen for small molecules that inhibit ELG1-dependent DNA repair in human embryonic kidney (HEK293T) cells expressing luciferase-tagged ELG1; also: nearly all actives have a fitted effect of over 55% in size
# Details: HEK293T ELG1-luciferase reporter, luminescence, 16 h, DNA damage induced by 5-fluorouridine; series mostly up to 46.1 µM
# Procedure, shortened: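 Luminescence from the luciferase reporter, measured 30 min after ONE-Glo reagent at room temperature, was the read-out. Beforehand, 2,000 cells per well were exposed for 16 hr at 37 °C to 5-fluorouridine together with compound or vehicle.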
# Potency is read from the fitted curve at half-maximal effect.
row,Compound,Potency
1,O=c1c2c3c(sc2nc2n1CCCS2)CCCC3,"inconclusive: 14.6 µM [activator, partial curve, poor fit]"
2,CC(=O)Nc1c(C)ccc2nsnc12,"inconclusive: 5.8 µM [activator, full curve, poor fit]"
3,COc1cc(Cl)ccc1OCc1cc(C(=O)N2C[C@@H]3CCC[C@H]2C3)no1,"inconclusive: 10.3 µM [activator, partial curve]"
4,Cc1ccc(C(=O)NCCc2cc3ccc(C)c(C)c3[nH]c2=O)cc1[N+](=O)[O-],"inconclusive: 6.51 µM [inhibitor, partial curve, poor fit]"
5,Nn1c(SCC(=O)Nc2ccc(N3CCOCC3)cc2)nnc1-c1ccccc1F,"inconclusive: 23.1 µM [activator, partial curve]"
6,COC(=O)c1c(C(=O)OC)c(-c2ccc(C)cc2)n2c1CS(=O)(=O)C2,inactive
7,CCC1CCCCN1CCCNC(=O)CCC(=O)N1CCOc2ccccc21 (configuration not stated),"inconclusive: 11.6 µM [activator, partial curve]"
8,C#CCSc1nc2sc3c(c2c(=O)n1C)CCC3,"inconclusive: 5.17 µM [inhibitor, partial curve]"
9,S=c1nc(C2CCCCC2)[nH]c2ccccc12,inactive
10,O=C(N/C(=C/C=C\c1ccccc1)C(=O)N1CCOCC1)c1ccc(Br)cc1,"inconclusive: 23.1 µM [inhibitor, single point]"
11,Cc1ccc(S(=O)(=O)N2CCN(C(=O)COC(=O)Cc3cccc(C(F)(F)F)c3)CC2)c(C)c1,inactive
12,CCCNC(=O)CCc1c(C)nc2c(c(C)nn2-c2ccc(C)cc2)c1C,inactive
13,COc1ccc(CC2S/C(=N/N=C/c3ccc(O)cc3)NC2=O)cc1 (configuration not stated),"inconclusive: 5.8 µM [activator, partial curve]"
14,O=c1c2[nH]c3ccc(F)cc3c2nc2n1CCCS2,"inconclusive: 29.1 µM [activator, partial curve, poor fit]"
15,Cc1cccc(CCNC(=O)c2cccc3c2C(=O)N(C2CCCCC2)C3)c1,inactive
16,O=C(NC1CCCCC1)N1CCC(n2c(=O)[nH]c3ccccc32)CC1,"inconclusive: 18.4 µM [inhibitor, single point]"
17,O=C1Nc2ccc(S(=O)(=O)N3CCCC3)c3ccc(S(=O)(=O)N4CCCC4)c1c23,"inconclusive: 14.6 µM [inhibitor, partial curve]"
18,S=C(Nc1ccc2[nH]ccc2c1)NC1CCCCC1,"inconclusive: 6.51 µM [activator, partial curve]"
19,CCOc1ccc(-c2nc(CN(Cc3ccccc3)C[C@@H]3CCC(=O)N3)c(C)o2)cc1,inactive
20,CCOC(=O)c1ccc(N2CCCCC2)c(NS(=O)(=O)c2cccc(C(F)(F)F)c2)c1,inactive
21,c1nc(N2CCN(Cc3ccc4c(c3)OCO4)CC2)c2[nH]cnc2n1,"inconclusive: 23.1 µM [inhibitor, partial curve]"
22,O=C(CNC(c1ccccc1)c1ccccc1)Nc1ccccc1F,inactive
23,CCN(Cc1ccccc1)C(=O)c1ccc(C(=O)N(CC)Cc2ccccc2)cc1,inactive
24,COc1cccc(C(=O)/C=C/Nc2ccc(S(=O)(=O)Nc3cnc4ccccc4n3)cc2)c1,"inconclusive: 29.1 µM [activator, single point]"

# Look-ups from the entries so far.
# COc1cc(Cl)ccc1OCc1cc(C(=O)N2C[C@@H]3CCC[C@H]2C3)no1 – Potency: inconclusive: 10.3 µM [activator, partial curve]
# C#CCSc1nc2sc3c(c2c(=O)n1C)CCC3 – Potency: inconclusive: 5.17 µM [inhibitor, partial curve]
# CCN(Cc1ccccc1)C(=O)c1ccc(C(=O)N(CC)Cc2ccccc2)cc1 – Potency: inactive

# Remaining list, next part.

row,Compound,Potency
1,O=C(O)C1CCCN(S(=O)(=O)c2ccccc2)C1 (configuration not stated),inactive
2,CCN1C(=O)C2(C(C#N)=C(N)Oc3c2c(C)nn3-c2ccccc2)c2ccccc21 (configuration not stated),inactive
3,Fc1cc2[nH]cnc2cc1Cl,inactive
4,COC(=O)c1c(-c2ccc(OC)cc2)oc2ccccc12,inactive
5,Nc1nn(S(=O)(=O)c2ccccc2)cc1-c1ccc([N+](=O)[O-])cc1,inactive
6,CC(C)c1ccc2oc(-c3ccc(N)cc3)nc2c1,"inconclusive: 0.259 µM [activator, full curve]"
7,Cc1cccc(NCc2ccc(Br)cc2)n1,inactive
8,COc1ccc(OC)c(Cc2nnc(CCC(=O)N3CCCCC3c3nccs3)o2)c1 (configuration not stated),"inconclusive: 23.1 µM [activator, partial curve]"
9,O=C(Nc1ccccc1)NC1CCCCC1,"inconclusive: 20.6 µM [activator, partial curve]"
10,COc1ccc(/C=N/Nc2ccc([N+](=O)[O-])cc2)cc1O,"inconclusive: 20.6 µM [activator, partial curve]"
11,Cc1sc(=NC(=O)c2ccco2)n(C)c1-c1ccc(Cl)cc1,"inconclusive: 4.11 µM [activator, partial curve, poor fit]"
12,Clc1ccc(-c2cnc(Oc3ccccc3)nc2)cc1,"inconclusive: 11.6 µM [activator, partial curve]"
13,CCOC(=O)CN1CCC(c2cc(-c3ccc(Cl)cc3)n[nH]2)CC1,"inconclusive: 18.3 µM [inhibitor, single point]"
14,COc1cccc(CN2C(=O)C3(C(C#N)=C(N)OC4=C3C(=O)CCC4)c3ccccc32)c1 (configuration not stated),inactive
15,CC1(C)Cc2nc(-c3ccccc3)nc(SCC(O)CO)c2CO1 (configuration not stated),"inconclusive: 11.6 µM [inhibitor, partial curve, poor fit]"
16,CCOC(=O)c1c2c3c(cccc3n(C)c1=O)C(=O)c1ccccc1-2,"inconclusive: 10 µM [inhibitor, single point]"
17,O=C(Nc1ccc(Cl)cc1F)C1CC1c1ccccc1 (configuration not stated),"inconclusive: 29.1 µM [activator, partial curve, poor fit]"
18,O=C(NCCc1ccc(Cl)cc1Cl)c1cc([N+](=O)[O-])c[nH]c1=O,"inconclusive: 25.9 µM [inhibitor, partial curve]"
19,CCOC(=O)N1CCN(C(=O)CSc2nc(=O)n3cc(C)ccc3n2)CC1,"inconclusive: 6.51 µM [activator, partial curve, poor fit]"
20,CCOC(=O)c1c(C)[nH]c(C(=O)COC(=O)C2CC2)c1C,"inconclusive: 16.4 µM [activator, partial curve]"
21,O=C(N/N=C/c1cccc2ccccc12)c1cccnc1,"inconclusive: 16.4 µM [activator, partial curve, poor fit]"
22,CCCCN(C(=O)c1nn(C)c(=O)c2ccccc12)c1c(N)n(CC(C)C)c(=O)[nH]c1=O,inactive
23,O=C(CSc1nnc(-c2ccc3c(c2)OCO3)o1)Nc1ncc(C(F)(F)F)cc1Cl,inactive
24,CC1CCCN(C(=O)COC(=O)C2=COCCO2)C1 (configuration not stated),"inconclusive: 16.4 µM [activator, partial curve]"

# Filtered by structure: the entries above containing a furan ring, fused or not.
row,Compound,Potency
4,COC(=O)c1c(-c2ccc(OC)cc2)oc2ccccc12,inactive
11,Cc1sc(=NC(=O)c2ccco2)n(C)c1-c1ccc(Cl)cc1,"inconclusive: 4.11 µM [activator, partial curve, poor fit]"

# Following part:

row,Compound,Potency
1,Cc1ccc(-n2c(C)cn(C(=O)c3ccccc3)c2=S)cc1,inactive
2,CCN(CC)S(=O)(=O)c1cc(NC(=O)CSc2nnc(N)s2)ccc1C,inactive
3,COc1cccc(CN2CCN(Cc3cc4ccccc4o3)CC2CCO)c1 (configuration not stated),inactive
4,COc1cccc(CN2CCC(N(CCc3ccccc3)Cc3ccccc3)CC2)c1OC,"inconclusive: 0.517 µM [inhibitor, partial curve, poor fit]"
5,CCC(=O)Nc1nn(C)c2nc3c(C)cccc3cc12,inactive
6,Cc1nc(SCc2ccccc2F)c2oc3ccccc3c2n1,"inconclusive: 4.11 µM [activator, partial curve, poor fit]"
7,Cc1cc(NC(=O)CSc2ccc3nnc(-c4ccc(Cl)cc4)n3n2)no1,"inconclusive: 18.4 µM [inhibitor, partial curve]"
8,N#Cc1ccc(C(=O)OCC(=O)Nc2cccc(S(=O)(=O)NC3=NCCC3)c2)cc1,inactive
9,CCCCCCC(=O)NNC(=O)c1c(O)c2ccccc2n(CCC)c1=O,"inconclusive: 25.9 µM [inhibitor, single point]"
10,Cc1ccc(S(=O)(=O)N2c3ccccc3CC2C)cc1 (configuration not stated),"inconclusive: 29.1 µM [inhibitor, single point]"
11,COc1ccc(CCNC(=O)C(NC(=O)OCc2ccccc2)C(C)C)cc1OC (configuration not stated),inactive
12,COc1ccc(-c2noc(CN(C(=O)c3ccc4c(c3)OCO4)C(C)C)n2)cc1OC,"inconclusive: 25.9 µM [inhibitor, single point]"
13,O=C(Nc1ccccn1)c1ccc(C(=O)Nc2ccccn2)cc1,"inconclusive: 18.3 µM [activator, partial curve, poor fit]"
14,Cc1cc(C)cc(N(C(C)C(=O)NCCC2=CCCCC2)S(C)(=O)=O)c1 (configuration not stated),"inconclusive: 18.4 µM [inhibitor, single point]"
15,COc1cc(C(=O)Nc2ccc(C)cc2)c2ccccc2n1,inactive
16,Cc1ccc(O)c(C(=O)CC(=O)c2ccc(Cl)cc2)c1,"inconclusive: 8.2 µM [activator, partial curve]"
17,CCOc1ccc(-n2c(C)cc(/C=N/N(C)C)c2C)cc1,inactive
18,COc1ccc(CC(=O)NNC(=O)CCC(=O)Nc2cc(C)ccc2C)cc1,"inconclusive: 14.6 µM [activator, partial curve, poor fit]"
19,O=C(Oc1ccc2ccccc2c1Cl)N1CCCCCC1,"inconclusive: 2.91 µM [activator, partial curve]"
20,c1ccc(CN2CCN(c3cnc4ccccc4n3)CC2)cc1,"inconclusive: 18.3 µM [activator, partial curve]"
21,COc1ccc2nc(N3CCCC(C(=O)NCCc4ccc(OC)c(OC)c4)C3)sc2c1 (configuration not stated),"inconclusive: 32.6 µM [inhibitor, single point]"
22,Cc1cc(C(=O)CCC(=O)N(C)CC(=O)Nc2c(Cl)cccc2Cl)c(C)s1,inactive
23,Cc1ccc(-c2[nH]c3cc(C(N)=O)ccc3c(=O)c2O)cc1,inactive
24,O=C(NC1CCS(=O)(=O)C1)c1sc2ccccc2c1Cl (configuration not stated),"inconclusive: 2.06 µM [inhibitor, partial curve]"
